This is one part of the list.
Key:
Experiment in all cases: glycan array binding signal (z-score within array); higher = stronger binding
Settings in all cases: glycan notation: IUPAC condensed, linker removed
[1] = target: Gal(b1-4)GlcNAc(b1-2)[Gal(b1-4)GlcNAc(b1-6)]Man(a1-6)[GlcNAc(b1-4)][Gal(b1-4)GlcNAc(b1-2)Man(a1-3)]Man(b1-4)GlcNAc(b1-4)GlcNAc
Outline: (§1)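 The binding signal is a Z-score computed within each array and averaged over linkers. Arrays of the same protein sequence at different concentrations or buffers were also averaged together. Data originate from 3228 arrays in the Consortium for Functional Glycomics database, kept only where the protein sequence was available.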

[2] = target: Gal(b1-4)GlcNAc(b1-2)[Gal(b1-4)GlcNAc(b1-6)]Man(a1-6)[GlcNAc(b1-4)][Gal(b1-4)GlcNAc(b1-2)[Gal(b1-4)GlcNAc(b1-4)]Man(a1-3)]Man(b1-4)GlcNAc(b1-4)[Fuc(a1-6)]GlcNAc
Outline: as §1

[3] = target: Gal(b1-4)GlcNAc(b1-3)Gal(b1-3)GalNAc
Outline: as §1

[4] = target: Gal(b1-4)GlcNAc(b1-3)Gal(b1-3)GlcNAc
Outline: as §1

[5] = target: Gal(b1-4)GlcNAc(b1-3)Gal(b1-4)Glc
Outline: as §1

[6] = target: Gal(b1-4)GlcNAc(b1-3)Gal(b1-4)GlcNAc
Outline: as §1

[7] = target: Gal(b1-4)GlcNAc(b1-3)Gal(b1-4)GlcNAc(b1-2)Man(a1-3)[Gal(b1-4)GlcNAc(b1-3)Gal(b1-4)GlcNAc(b1-2)Man(a1-6)]Man(b1-4)GlcNAc(b1-4)GlcNAc
Outline: as §1

[8] = target: Gal(b1-4)GlcNAc(b1-3)Gal(b1-4)GlcNAc(b1-2)Man(a1-3)[Gal(b1-4)GlcNAc(b1-3)Gal(b1-4)GlcNAc(b1-2)Man(a1-6)]Man(b1-4)GlcNAc(b1-4)[Fuc(a1-6)]GlcNAc
Outline: as §1

[9] = target: Gal(b1-4)GlcNAc(b1-3)Gal(b1-4)GlcNAc(b1-2)[Gal(b1-4)GlcNAc(b1-3)Gal(b1-4)GlcNAc(b1-6)]Man(a1-6)[Gal(b1-4)GlcNAc(b1-3)Gal(b1-4)GlcNAc(b1-2)Man(a1-3)]Man(b1-4)GlcNAc(b1-4)GlcNAc
Outline: as §1

[10] = target: Gal(b1-4)GlcNAc(b1-3)Gal(b1-4)GlcNAc(b1-2)[Gal(b1-4)GlcNAc(b1-3)Gal(b1-4)GlcNAc(b1-6)]Man(a1-6)[Gal(b1-4)GlcNAc(b1-3)Gal(b1-4)GlcNAc(b1-2)Man(a1-3)]Man(b1-4)GlcNAc(b1-4)[Fuc(a1-6)]GlcNAc
Outline: as §1

[11] = target: Gal(b1-4)GlcNAc(b1-3)Gal(b1-4)GlcNAc(b1-3)Gal(b1-4)GlcNAc
Outline: as §1

[12] = target: Gal(b1-4)GlcNAc(b1-3)Gal(b1-4)GlcNAc(b1-3)Gal(b1-4)GlcNAc(b1-2)Man(a1-3)[Gal(b1-4)GlcNAc(b1-3)Gal(b1-4)GlcNAc(b1-3)Gal(b1-4)GlcNAc(b1-2)Man(a1-6)]Man(b1-4)GlcNAc(b1-4)GlcNAc
Outline: as §1

[13] = target: Gal(b1-4)GlcNAc(b1-3)Gal(b1-4)GlcNAc(b1-3)Gal(b1-4)GlcNAc(b1-2)Man(a1-3)[Gal(b1-4)GlcNAc(b1-3)Gal(b1-4)GlcNAc(b1-3)Gal(b1-4)GlcNAc(b1-2)Man(a1-6)]Man(b1-4)GlcNAc(b1-4)[Fuc(a1-6)]GlcNAc
Outline: as §1

[14] = target: Gal(b1-4)GlcNAc(b1-3)Gal(b1-4)GlcNAc(b1-3)Gal(b1-4)GlcNAc(b1-2)[Gal(b1-4)GlcNAc(b1-3)Gal(b1-4)GlcNAc(b1-3)Gal(b1-4)GlcNAc(b1-6)]Man(a1-6)[Gal(b1-4)GlcNAc(b1-3)Gal(b1-4)GlcNAc(b1-3)Gal(b1-4)GlcNAc(b1-2)Man(a1-3)]Man(b1-4)GlcNAc(b1-4)[Fuc(a1-6)]GlcNAc
Outline: as §1

[15] = target: Gal(b1-4)GlcNAc(b1-3)Gal(b1-4)GlcNAc(b1-3)Gal(b1-4)GlcNAc(b1-3)Gal(b1-4)GlcNAc(b1-2)Man(a1-3)[Gal(b1-4)GlcNAc(b1-3)Gal(b1-4)GlcNAc(b1-3)Gal(b1-4)GlcNAc(b1-3)Gal(b1-4)GlcNAc(b1-2)Man(a1-6)]Man(b1-4)GlcNAc(b1-4)GlcNAc
Outline: as §1

[16] = target: Gal(b1-4)GlcNAc(b1-3)Gal(b1-4)GlcNAc(b1-3)Gal(b1-4)GlcNAc(b1-3)Gal(b1-4)GlcNAc(b1-2)Man(a1-3)[Gal(b1-4)GlcNAc(b1-3)Gal(b1-4)GlcNAc(b1-3)Gal(b1-4)GlcNAc(b1-3)Gal(b1-4)GlcNAc(b1-2)Man(a1-6)]Man(b1-4)GlcNAc(b1-4)[Fuc(a1-6)]GlcNAc
Outline: as §1

[17] = target: Gal(b1-4)GlcNAc(b1-3)Gal(b1-4)GlcNAc(b1-3)Gal(b1-4)GlcNAc(b1-3)Gal(b1-4)GlcNAc(b1-2)[Gal(b1-4)GlcNAc(b1-3)Gal(b1-4)GlcNAc(b1-3)Gal(b1-4)GlcNAc(b1-3)Gal(b1-4)GlcNAc(b1-6)]Man(a1-6)[Gal(b1-4)GlcNAc(b1-3)Gal(b1-4)GlcNAc(b1-3)Gal(b1-4)GlcNAc(b1-3)Gal(b1-4)GlcNAc(b1-2)Man(a1-3)]Man(b1-4)GlcNAc(b1-4)[Fuc(a1-6)]GlcNAc
Outline: as §1

[18] = target: Gal(b1-4)GlcNAc(b1-3)Gal(b1-4)GlcNAc(b1-3)Gal(b1-4)GlcNAc(b1-3)Gal(b1-4)GlcNAc(b1-3)Gal(b1-4)GlcNAc(b1-2)Man(a1-3)[Gal(b1-4)GlcNAc(b1-3)Gal(b1-4)GlcNAc(b1-3)Gal(b1-4)GlcNAc(b1-3)Gal(b1-4)GlcNAc(b1-3)Gal(b1-4)GlcNAc(b1-2)Man(a1-6)]Man(b1-4)GlcNAc(b1-4)GlcNAc
Outline: as §1

[19] = target: Gal(b1-4)GlcNAc(b1-3)Gal(b1-4)GlcNAc(b1-3)Gal(b1-4)GlcNAc(b1-3)Gal(b1-4)GlcNAc(b1-3)Gal(b1-4)GlcNAc(b1-2)Man(a1-3)[Gal(b1-4)GlcNAc(b1-3)Gal(b1-4)GlcNAc(b1-3)Gal(b1-4)GlcNAc(b1-3)Gal(b1-4)GlcNAc(b1-3)Gal(b1-4)GlcNAc(b1-2)Man(a1-6)]Man(b1-4)GlcNAc(b1-4)[Fuc(a1-6)]GlcNAc
Outline: as §1

[20] = target: Gal(b1-4)GlcNAc(b1-3)Gal(b1-4)GlcNAc(b1-3)Gal(b1-4)GlcNAc(b1-3)Gal(b1-4)GlcNAc(b1-3)Gal(b1-4)GlcNAc(b1-2)[Gal(b1-4)GlcNAc(b1-3)Gal(b1-4)GlcNAc(b1-3)Gal(b1-4)GlcNAc(b1-3)Gal(b1-4)GlcNAc(b1-3)Gal(b1-4)GlcNAc(b1-6)]Man(a1-6)[Gal(b1-4)GlcNAc(b1-3)Gal(b1-4)GlcNAc(b1-3)Gal(b1-4)GlcNAc(b1-3)Gal(b1-4)GlcNAc(b1-3)Gal(b1-4)GlcNAc(b1-2)Man(a1-3)]Man(b1-4)GlcNAc(b1-4)[Fuc(a1-6)]GlcNAc
Outline: as §1

[21] = target: Gal(b1-4)GlcNAc(b1-3)Gal(b1-4)GlcNAc(b1-3)Gal(b1-4)GlcNAc(b1-3)Gal(b1-4)GlcNAc(b1-3)Gal(b1-4)GlcNAc(b1-3)Gal(b1-4)GlcNAc(b1-2)Man(a1-3)[Gal(b1-4)GlcNAc(b1-3)Gal(b1-4)GlcNAc(b1-3)Gal(b1-4)GlcNAc(b1-3)Gal(b1-4)GlcNAc(b1-3)Gal(b1-4)GlcNAc(b1-3)Gal(b1-4)GlcNAc(b1-2)Man(a1-6)]Man(b1-4)GlcNAc(b1-4)GlcNAc
Outline: as §1

[22] = target: Gal(b1-4)GlcNAc(b1-3)Gal(b1-4)GlcNAc(b1-3)GalNAc
Outline: as §1

[23] = target: Gal(b1-4)GlcNAc(b1-3)Gal(b1-4)GlcNAc(b1-3)[Gal(b1-4)GlcNAc(b1-3)Gal(b1-4)GlcNAc(b1-6)]GalNAc
Outline: as §1

B1: Vd7LysM (Verticillium dahliae) (protein)
chain: RRGPEPKYPPAAGTSSYCSYWVDYEGDKSCSRVLEDNVVVLKDFARWNPTVGADCSGIKAGNSYCVEAFGEPEPIEVTTTTRAATTTTQPTATTTTFANGIATPQPTQSGMVTNCNKFHWIAEGVSCSQVISFQKITLADFVKWNPSVKSDCSGMWAGVNVCVGVVGSSTDTAKPTTTAPSNGVVTPQPTQPSMVTNCNKFHWIAKGVTCQQVISYQKISLADFVKWNPSVLSDCSGMWAEVQVCVGVIGSTPTTLATTTTTAGNGVSTPLPTQPGMVTNCAKFHWVAKGVTCNQIYSFQKITLEQFVSYNPTVKSDCSGMQAEVQVCVGLIAGTTPTTTRPPTTTAPGNGVSTPQPTQPGMVTNCAKFHWVAKGVTCNQIYSFQKITLEQFVSFNPTVKSDCTGMQAEVNVCVGLIGGNPTPTQTGNGIATPTPIQPGMVSNCKKFHWIAQGVTCQQVISFQKITLADFVKWNTGVGSDCRTMWAETNVCVGV
Question: What does the source list for B1?
Answer: glycan array binding signal (z-score) [1]: 0.042; glycan array binding signal (z-score) [2]: 1.59; glycan array binding signal (z-score) [3]: -0.133; glycan array binding signal (z-score) [4]: -0.642; glycan array binding signal (z-score) [5]: -0.908; glycan array binding signal (z-score) [6]: -0.99; glycan array binding signal (z-score) [7]: -0.092; glycan array binding signal (z-score) [8]: -0.239; glycan array binding signal (z-score) [9]: -0.382; glycan array binding signal (z-score) [10]: 2.56; glycan array binding signal (z-score) [11]: -1.07; glycan array binding signal (z-score) [12]: 1.19; glycan array binding signal (z-score) [13]: 0.652; glycan array binding signal (z-score) [14]: 1.49; glycan array binding signal (z-score) [15]: 0.781; glycan array binding signal (z-score) [16]: 1.47; glycan array binding signal (z-score) [17]: 1.72; glycan array binding signal (z-score) [18]: 0.932; glycan array binding signal (z-score) [19]: -0.061; glycan array binding signal (z-score) [20]: 4.04; glycan array binding signal (z-score) [21]: 1.02; glycan array binding signal (z-score) [22]: -0.501; glycan array binding signal (z-score) [23]: 0.928
